Data reported in patent US20240390512A1, “METHODS OF TREATING CHEMOTHERAPY-RESISTANT CANCER WITH AN ANTIBODY-DRUG CONJUGATE” (DAIICHI SANKYO COMPANY, LIMITED, priority 2021, published 2024).
No constants are given. Whether binding was seen depends on the method and setting. Some binding calls cover weakened binding; strength is not graded here.

T1: EC1 deletion mutant of human CDH6, on cells (human) (UniProt P55285)
T1 sequence: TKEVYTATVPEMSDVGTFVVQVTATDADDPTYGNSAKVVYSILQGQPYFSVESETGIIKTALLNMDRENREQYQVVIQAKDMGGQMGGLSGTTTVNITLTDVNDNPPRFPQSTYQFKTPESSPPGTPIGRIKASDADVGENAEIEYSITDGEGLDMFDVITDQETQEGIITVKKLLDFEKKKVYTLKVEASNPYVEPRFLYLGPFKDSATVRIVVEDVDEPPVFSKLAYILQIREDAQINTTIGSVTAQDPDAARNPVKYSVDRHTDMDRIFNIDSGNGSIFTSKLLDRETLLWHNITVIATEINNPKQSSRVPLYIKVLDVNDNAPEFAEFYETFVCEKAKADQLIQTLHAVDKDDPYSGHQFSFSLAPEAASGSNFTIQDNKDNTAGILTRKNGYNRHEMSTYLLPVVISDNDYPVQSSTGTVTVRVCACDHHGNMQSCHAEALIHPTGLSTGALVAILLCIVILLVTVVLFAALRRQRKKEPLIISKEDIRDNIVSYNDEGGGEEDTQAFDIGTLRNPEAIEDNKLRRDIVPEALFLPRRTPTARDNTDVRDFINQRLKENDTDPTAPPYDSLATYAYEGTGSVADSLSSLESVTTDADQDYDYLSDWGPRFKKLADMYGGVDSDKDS

T2: EC5 deletion mutant of human CDH6, on cells (human) (UniProt P55285)
T2 sequence: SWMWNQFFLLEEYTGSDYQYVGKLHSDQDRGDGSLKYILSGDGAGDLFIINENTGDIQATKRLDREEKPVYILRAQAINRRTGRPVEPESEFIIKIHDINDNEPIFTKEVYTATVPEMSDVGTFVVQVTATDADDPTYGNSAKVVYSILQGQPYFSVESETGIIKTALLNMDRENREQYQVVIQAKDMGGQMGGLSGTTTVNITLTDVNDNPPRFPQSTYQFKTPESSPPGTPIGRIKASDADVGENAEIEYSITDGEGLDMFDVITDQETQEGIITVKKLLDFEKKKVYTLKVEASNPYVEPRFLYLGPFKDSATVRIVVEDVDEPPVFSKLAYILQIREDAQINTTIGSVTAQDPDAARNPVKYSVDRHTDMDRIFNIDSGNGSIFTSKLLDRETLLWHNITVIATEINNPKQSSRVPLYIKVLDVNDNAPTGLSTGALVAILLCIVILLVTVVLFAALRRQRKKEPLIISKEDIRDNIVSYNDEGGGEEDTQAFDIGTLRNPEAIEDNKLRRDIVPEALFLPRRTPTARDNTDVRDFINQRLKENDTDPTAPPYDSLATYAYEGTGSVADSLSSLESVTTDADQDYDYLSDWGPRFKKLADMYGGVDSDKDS

T3: EC2 deletion mutant of human CDH6, on cells (human) (UniProt P55285)
T3 sequence: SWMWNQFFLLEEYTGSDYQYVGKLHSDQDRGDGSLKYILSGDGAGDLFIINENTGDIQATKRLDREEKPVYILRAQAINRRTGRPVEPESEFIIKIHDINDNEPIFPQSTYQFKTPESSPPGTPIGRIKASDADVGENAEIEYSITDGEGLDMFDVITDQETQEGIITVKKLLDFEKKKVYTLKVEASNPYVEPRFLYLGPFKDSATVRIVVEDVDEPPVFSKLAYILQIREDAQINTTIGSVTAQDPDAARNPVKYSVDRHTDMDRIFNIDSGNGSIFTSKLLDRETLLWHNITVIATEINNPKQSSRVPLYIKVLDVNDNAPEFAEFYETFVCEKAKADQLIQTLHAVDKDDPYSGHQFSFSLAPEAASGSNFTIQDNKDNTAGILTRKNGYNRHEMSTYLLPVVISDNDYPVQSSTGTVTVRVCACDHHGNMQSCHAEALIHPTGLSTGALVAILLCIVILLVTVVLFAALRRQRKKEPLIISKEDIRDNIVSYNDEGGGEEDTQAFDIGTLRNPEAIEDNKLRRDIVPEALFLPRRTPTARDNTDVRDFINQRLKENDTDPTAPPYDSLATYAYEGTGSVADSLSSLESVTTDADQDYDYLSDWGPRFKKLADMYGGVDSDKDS

T4: EC4 deletion mutant of human CDH6, on cells (human) (UniProt P55285)
T4 sequence: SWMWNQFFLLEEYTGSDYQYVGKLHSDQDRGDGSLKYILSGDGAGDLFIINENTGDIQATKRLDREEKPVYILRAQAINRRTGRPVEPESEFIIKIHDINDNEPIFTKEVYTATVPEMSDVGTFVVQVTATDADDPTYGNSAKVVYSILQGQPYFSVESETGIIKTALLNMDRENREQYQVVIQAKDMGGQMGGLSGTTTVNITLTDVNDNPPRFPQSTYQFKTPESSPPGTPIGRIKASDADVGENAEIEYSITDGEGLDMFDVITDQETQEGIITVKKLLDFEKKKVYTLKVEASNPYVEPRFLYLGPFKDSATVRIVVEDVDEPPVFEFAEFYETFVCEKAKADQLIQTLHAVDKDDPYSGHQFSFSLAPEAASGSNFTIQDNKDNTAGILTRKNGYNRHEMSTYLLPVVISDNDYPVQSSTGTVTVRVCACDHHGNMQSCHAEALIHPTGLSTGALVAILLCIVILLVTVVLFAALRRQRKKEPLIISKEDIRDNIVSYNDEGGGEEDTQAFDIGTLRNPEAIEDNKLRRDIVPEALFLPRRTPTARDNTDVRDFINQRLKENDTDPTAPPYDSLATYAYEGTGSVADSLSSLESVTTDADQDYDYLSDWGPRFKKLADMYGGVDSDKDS


Columns and labels:
[1] = biological target: T1, EC1 deletion mutant of human CDH6, on cells (human); assay: flow cytometry; 293α cells transfected with EC1-deleted hCDH6 (open line) against untransfected 293α cells (shaded); antibody 20 nM; anti-rat IgG-FITC
[2] = biological target: T2, EC5 deletion mutant of human CDH6, on cells (human); assay: flow cytometry; 293α cells transfected with EC5-deleted hCDH6 (open line) against untransfected 293α cells (shaded); antibody 20 nM; anti-rat IgG-FITC
[3] = biological target: T3, EC2 deletion mutant of human CDH6, on cells (human); assay: flow cytometry, transfected 293α cells, 20 nM antibody
[4] = biological target: T1, EC1 deletion mutant of human CDH6, on cells (human); assay: as above
[5] = biological target: T4, EC4 deletion mutant of human CDH6, on cells (human); assay: as above
[6] = biological target: T2, EC5 deletion mutant of human CDH6, on cells (human); assay: as above
[7] = biological target: T3, EC2 deletion mutant of human CDH6, on cells (human); assay: flow cytometry; 293α cells transfected with EC2-deleted hCDH6 (open line) against untransfected 293α cells (shaded); antibody 20 nM; anti-rat IgG-FITC
[8] = biological target: T4, EC4 deletion mutant of human CDH6, on cells (human); assay: flow cytometry; 293α cells transfected with EC4-deleted hCDH6 (open line) against untransfected 293α cells (shaded); antibody 20 nM; anti-rat IgG-FITC
[9] = biological target: T1, EC1 deletion mutant of human CDH6, on cells (human); assay: flow cytometry; 293α cells transfected with EC1-deleted hCDH6 (open line) against untransfected 293α cells (shaded); APC anti-human IgG goat F(ab')2; antibody concentration not given
[10] = biological target: T3, EC2 deletion mutant of human CDH6, on cells (human); assay: flow cytometry, transfected 293α cells
[11] = biological target: T1, EC1 deletion mutant of human CDH6, on cells (human); assay: flow cytometry, transfected 293α cells
[12] = biological target: T4, EC4 deletion mutant of human CDH6, on cells (human); assay: flow cytometry, transfected 293α cells
[13] = biological target: T2, EC5 deletion mutant of human CDH6, on cells (human); assay: flow cytometry, transfected 293α cells
[14] = biological target: T2, EC5 deletion mutant of human CDH6, on cells (human); assay: flow cytometry; 293α cells transfected with EC5-deleted hCDH6 (open line) against untransfected 293α cells (shaded); APC anti-human IgG goat F(ab')2; antibody concentration not given
[15] = biological target: T3, EC2 deletion mutant of human CDH6, on cells (human); assay: flow cytometry; 293α cells transfected with EC2-deleted hCDH6 (open line) against untransfected 293α cells (shaded); APC anti-human IgG goat F(ab')2; antibody concentration not given
[16] = biological target: T4, EC4 deletion mutant of human CDH6, on cells (human); assay: flow cytometry; 293α cells transfected with EC4-deleted hCDH6 (open line) against untransfected 293α cells (shaded); APC anti-human IgG goat F(ab')2; antibody concentration not given

Binder	binding [1]	binding [2]	binding [3]	binding [4]	binding [5]	binding [6]	binding [7]	binding [8]	binding [9]	binding [10]	binding [11]	binding [12]	binding [13]	binding [14]	binding [15]	binding [16]
humanized anti-CDH6 antibody H01L02 (antibody, human IgG1, kappa, V domains shown) VH: EVQLVQSGAEVKKPGASVKVSCKASGYTFTRNFMHWVRQAPGQGLEWMGWIYPGDGETEYAQKFQGRVTITADTSTSTAYMELSSLRSEDTAVYYCARGVYGGFAGGYFDFWGQGTLVTVSS VL: DIQMTQSPSSLSASVGDRVTITCKASQNIYKNLAWYQQKPGKAPKLLIYDANTLQTGVPSRFSGSGSGSDFTLTISSLQPEDFATYFCQQYYSGWAFGQGTKVEIKR									binds	binds	binds	binds	binds	binds	binds	binds
humanized anti-CDH6 antibody H02L02 (antibody, human IgG1, kappa, V domains shown) VH: EVQLVQSGAEVKKPGASVKVSCKASGYTFTRNFMHWVRQAPGQGLEWMGWIYPGDGETEYNQKFQGRVTITADRSTSTAYMELSSLRSEDTAVYFCARGVYGGFAGGYFDFWGQGTLVTVSS VL: DIQMTQSPSSLSASVGDRVTITCKASQNIYKNLAWYQQKPGKAPKLLIYDANTLQTGVPSRFSGSGSGSDFTLTISSLQPEDFATYFCQQYYSGWAFGQGTKVEIKR									binds	binds	binds	binds	binds	binds	binds	binds
rat anti-human CDH6 monoclonal antibody rG019 (antibody, rat IgG2b, V domains shown) VH: QVQLQQSGAELVKPGSSVKISCKASGYTFTRNFMHWIKQQPGNGLEWIGWIYCGDGETEYNQKFNGKATLTADRSSSTAYMELSRLTSEDSAVYFCARGVYGGFAGGYFDFWGQGVMVTVSS VL: DIQMTQSPSLLSASVGDRVTLNCKASQNIYKNLAWYQQKLGEGPKLLIYDANTLQTGIPSRFSGSGSGSDFTLTISSLQPEDVATYFCQQYYSGWAFGGVTNLELKRA	binds	binds	binds	binds	binds	binds	binds	binds								

The remaining lines, values ahead:

binding [1]	binding [2]	binding [3]	binding [4]	binding [5]	binding [6]	binding [7]	binding [8]	binding [9]	binding [10]	binding [11]	binding [12]	binding [13]	binding [14]	binding [15]	binding [16]	Binder
binds	binds	binds	binds	binds	binds	binds	binds									rat anti-human CDH6 monoclonal antibody rG055 (antibody, rat IgG2b, V domains shown) VH: EVQLQESGPGLVRPSQSLSLSCSVTDYSITSNYWGWIRRFPGNKMEWMGYITYSGYTSYNPSLQSRISITRDTSKNQFFLQLNSVTAEDTATYYCARSINHGGYSYVVDAWGPGASVTVSS VL: DVQMTHSPSYLAASPGESVSISCKTSKNISNYLVWYQQKPGEAYKLLIYSGSTLQSGTPSRFSGSGSGTDFTLTIRSLEPEDFGLYFCQQYYEKPFTFGSGTKLEIKR
binds	binds	binds	binds	binds	binds	binds	binds									rat anti-human CDH6 monoclonal antibody rG061 (antibody, rat IgG2b, V domains shown) VH: EVQLQESGPGLVKPSQSLSLTCSVTGYSITTYYWGWIRKFPGNKMEWMGYISYSGRTSYNPSLKSRMSITRDASKNQFFLQLNSVTTDDTATYYCARSPINHGGYWYFDFWGPGTMVTVSS VL: DVQMTQSPSYLAASPGESVSISCKATKSISNYLAWYQQKPGEAYKVLIYSGSTLQSGTPSRFSGSGSGTDFTLTIRSLEPEDFGLYSCQQYYEKPLTFGSGTKLEIKR
binds	binds	binds	binds	binds	binds	binds	binds									rat anti-human CDH6 monoclonal antibody rG056 (antibody, rat IgG2b, V domains shown) VH: EVQLQESGPGLVKPSQSLSLTCSVTDYSITTYFWGWIRKFPGNKMEWMGYMSYRGGTSYNPSLKSRISITRDTSKNQFFLQLNSVTTEDTATYYCARCPNYGGHSLVFDYWGQGVMVTVSS VL: DVQMTQSPSSLAASPGESVSISCRATKSIGIYLAWYQQKPGKTFKLLIYSGSTLQSGTPSRFSGSGSGTDFTLTIRSLEPEDFGLYFCQQFYENPFTFGSGTKLEIRR
